{"source": "patent US11077128B2", "about": "“Selective inhibitors of Alpha2-containing isoforms of Na,K-ATPase and use thereof for reduction of intraocular pressure” (Yeda Research and Development Co. Ltd., priority 2015, dated 2021)", "system": "Na,K-ATPase in NPE cells", "type": "cell-based, bovine", "details": "two site model", "note": "No dose or concentration is given here for some results."}
{"smiles": "CC1CN(C2CCC2)CCC(O[C@@H]2C(C)O[C@@H](O[C@@H]3C(C)O[C@@H](O[C@H]4CC[C@@]5(C)C(CCC6C5CC(O)[C@]5(C)[C@@H](C7=CC(=O)OC7)CC[C@]65O)C4)C[C@@H]3O)C[C@@H]2O)O1", "note": "(stereo in doubt) [DcB, 4-((3S,5R,8R,9S,10S,12R,13S,14S,17R)-3-(((2R,4S,5S,6R)-5-(((2S,4S,5S,6R)-5-((4-cyclobutyl-2-methyl-1,4-oxazepan-7-yl)oxy)-4-hydroxy-6-methyltetrahydro-2H-pyran-2-yl)oxy)-4-hydroxy-6-methyltetrahydro-2H-pyran-2-yl)oxy)-12,14-dihydroxy-10,13-dimethylhexadecahydro-1H-cyclopenta[a]phenanthren-17-yl)furan-2(5H)-one]", "values": [{"measurement": "A α1, 2 sites model (fraction of α1)", "value": "0.34 ± 0.097"}, {"measurement": "A α2, 2 sites model (fraction of α2)", "value": "0.66 ± 0.090"}]}
